Assay results from patent publication US20090093069A1, “Topiramate Immunoassays” (ARK Diagnostics, Inc., priority 2007, published 2009).

System: antibody from rabbit #11341
Assay: Crossreactivity to topiramate metabolites in the homogeneous enzyme immunoassay (HITACHI 917)
Assay type: binding
Conditions: metabolite 50.0 μg/mL, in the presence of 20 μg/mL topiramate; concentration with metabolite minus without
Procedure: % Crossreactivity=100×(“apparent concentration of measurand”/“concentration of crossreactant”)
(§1) The ARK Assay for topiramate is conducted using a liquid, ready-to-use, two-reagent kit. […] Topiramate containing sample is incubated with antibody reagent followed by the addition of the enzyme conjugate reagent. The enzyme conjugate activity decreases upon binding to the antibody. The enzyme conjugate, which is not bound to the antibody, catalyzes the oxidation of glucose 6-phosphate (G6P). The oxidation of G6P is coupled with the reduction of NAD^+ to NADH, which can be measured at 340 nm. The change in the absorbance at 340 nm can be measured spectrophotometrically. The topiramate concentration in a specimen can be measured in terms of G6PDH activity. The increase in the rate at 340 nm is due to the formation of NADH and is proportional to the enzyme conjugate activity. […] The assay rate increases with increasing the concentration of drug in the sample.
The apparent topiramate concentration for the metabolite is the difference in concentration with metabolite minus the concentration without metabolite.

Row | Compound | Apparent Topiramate [µg/mL]
1 | CC1(C)O[C@H]2[C@@H]3O[C@](C)(CO)O[C@@H]3CO[C@@]2(COS(N)(=O)=O)O1 [9-OH-Topiramate, 9-hydroxytopiramate] | 1.59
2 | CC1(C)O[C@H]2[C@@H]3O[C@@](C)(CO)O[C@@H]3CO[C@@]2(COS(N)(=O)=O)O1 [10-OH-Topiramate, 10-hydroxytopiramate] | 1.60

System: rabbit polyclonal antibody #11341
Assay: Coadministered drug interference study in the homogeneous enzyme immunoassay (HITACHI 917)
Assay type: binding
Conditions: 5.0 μg/mL drug added to human serum containing 20.0 μg/mL topiramate
Procedure: The antibody was added into the antibody diluent to prepare the antibody reagent. The antibody reagent consists of antibody as prepared above, buffer, stabilizers, preservatives, and the substrates for the enzyme conjugate NAD and glucose 6 phosphate. […] The enzyme conjugate reagent consists of the conjugate, buffer, stabilizers and preservatives.
as §1
A high concentration of each coadministered drug was spiked into normal human serum with containing topiramate 20 μg/mL and assayed. Each sample was assayed in duplicate. […] The percentage concentration above 20.0 μg/mL of topiramate was calculated for each coadministered drug tested.

Row | Compound | Result (apparent topiramate concentration) [µg/mL]
3 | NC(N)=Nc1nc(CSCCC(N)=NS(N)(=O)=O)cs1 [Famotidine] | 19.99

Same assay, conditions: 10.0 μg/mL drug added to human serum containing 20.0 μg/mL topiramate

Row | Compound | Result (apparent topiramate concentration) [µg/mL]
4 | NS(=O)(=O)c1cc(C(=O)O)c(NCc2ccco2)cc1Cl [Furosemide] | 20.01

Same assay, conditions: 50.0 μg/mL drug added to human serum containing 20.0 μg/mL topiramate

Row | Compound | Result (apparent topiramate concentration) [µg/mL]
5 | CC(=O)Nc1nnc(S(N)(=O)=O)s1 [Acetazolamide] | 20.28
6 | CC(=O)Nc1ccc(O)cc1 [Acetominophen] | 19.81
7 | O=C1CN=C(c2ccccc2Cl)c2cc([N+](=O)[O-])ccc2N1 [Clonazepam] | 20.44
8 | CN1C(=O)CN=C(c2ccccc2)c2cc(Cl)ccc21 [Diazepam] | 20.41
9 | CC(C)Cc1ccc(C(C)C(=O)O)cc1 (stereo not drawn) [Ibuprofen] | 21.24
10 | O=C1NC(=O)C(c2ccccc2)(c2ccccc2)N1 [Phenytoin] | 20.16

Same assay, conditions: 100.0 μg/mL drug added to human serum containing 20.0 μg/mL topiramate

Row | Compound | Result (apparent topiramate concentration) [µg/mL]
11 | CC(=O)Oc1ccccc1C(=O)O [Acetylsalicyclic Acid] | 20.25
12 | Cn1c(=O)c2c(ncn2C)n(C)c1=O [Caffeine] | 20.35
13 | NC(=O)N1c2ccccc2C=Cc2ccccc21 [Carbamazepine] | 19.57
14 | NS(=O)(=O)c1cc(C2(O)NC(=O)c3ccccc32)ccc1Cl (stereo not drawn) [Chlorthalidone] | 20.16
15 | NCC1(CC(=O)O)CCCCC1 [Gabapentin] | 19.51
16 | Nc1nnc(-c2cccc(Cl)c2Cl)c(N)n1 [Lamotrogine] | 18.98
17 | COCCc1ccc(OCC(O)CNC(C)C)cc1 (stereo not drawn) [Metoprolol] | 20.44
18 | CCC1(c2ccccc2)C(=O)NC(=O)NC1=O [Phenobarbitol] | 21.08
19 | CCC1(c2ccccc2)C(=O)NCNC1=O [Primidone] | 18.17
20 | COc1ccc(CCN(C)CCCC(C#N)(c2ccc(OC)c(OC)c2)C(C)C)cc1OC (stereo not drawn) [Verapamil] | 21.16

Same assay, conditions: 200.0 μg/mL drug added to human serum containing 20.0 μg/mL topiramate

Row | Compound | Result (apparent topiramate concentration) [µg/mL]
21 | CCCC(CCC)C(=O)O [Valproic Acid] | 20.99
22 | NS(=O)(=O)Cc1noc2ccccc12 [Zonisamide] | 20.16

Same assay, conditions: 500.0 μg/mL drug added to human serum containing 20.0 μg/mL topiramate

Row | Compound | Result (apparent topiramate concentration) [µg/mL]
23 | CCC1(C)CC(=O)NC1=O (stereo not drawn) [Ethosuxamide] | 19.57
24 | NC(=O)OCC(COC(N)=O)c1ccccc1 [Felbamate] | 21.09

Same assay, conditions: 750.0 μg/mL drug added to human serum containing 20.0 μg/mL topiramate

Row | Compound | Result (apparent topiramate concentration) [µg/mL]
25 | O=C(O)c1ccccc1O [Salicylic Acid] | 19.57
26 | CCCCNC(=O)NS(=O)(=O)c1ccc(C)cc1 [Tolbutamide] | 19.39

Same assay, conditions: 2000.0 μg/mL drug added to human serum containing 20.0 μg/mL topiramate

Row | Compound | Result (apparent topiramate concentration) [µg/mL]
27 | Nc1ccc(S(N)(=O)=O)cc1 [Sulfanilamide] | 18.77
